# According to US7674907B2, “Furanopyridine derivatives and methods of use” (Amgen Inc., priority 2004, dated 2010):
# Amino acid sequences for entries named in this document (tags omitted). Residues count along the entry.
# UniProt P06239, 225-509: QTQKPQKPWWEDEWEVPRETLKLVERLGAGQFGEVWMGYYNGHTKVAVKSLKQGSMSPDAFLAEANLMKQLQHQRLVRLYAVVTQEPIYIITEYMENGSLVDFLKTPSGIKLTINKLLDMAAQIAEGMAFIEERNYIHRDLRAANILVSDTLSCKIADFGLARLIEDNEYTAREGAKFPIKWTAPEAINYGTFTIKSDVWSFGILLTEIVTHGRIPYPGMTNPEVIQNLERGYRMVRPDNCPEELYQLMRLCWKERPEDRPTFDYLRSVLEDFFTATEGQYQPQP
# Some entries share one result that the patent states for a list of compounds.
# Molecular target: T1, Lck kinase enzyme (Homo sapiens, UniProt P06239)
# T1 construct: LCK KD GST (225-509); GST
# Experiment: LCK-Homogeneous Time Resolved Fluorescent (HTRF) kinase assay
# Format: biochemical
# Details: read-out: average IC50 value in the human HTRF assay, inhibition of the Lck kinase enzyme
row,SMILES,IC50
1,"Clc1c(NC[C@@H]2CCCO2)cnc2oc(-c3ccccc3)c(-c3ccccc3)c12 [Example 9, 4-chloro-2,3-diphenyl-N-((2S)-tetrahydro-2-furanylmethyl)furo[2,3-b]pyridin-5-amine]",≤ 5 µM
2,"N#Cc1cnc2oc(-c3ccccc3)c(-c3ccccc3)c2c1NCCc1ccccn1 [Example 16, 2,3-diphenyl-4-((2-(2-pyridinyl)ethyl)amino)furo[2,3-b]pyridine-5-carbonitrile]",≤ 5 µM
3,"N#Cc1cnc2oc(-c3ccccc3)c(-c3ccccc3)c2c1N1CCN(CCn2ccnc2)CC1 [Example 30, 4-(4-(2-(1H-imidazol-1-yl)ethyl)-1-piperazinyl)-2,3-diphenylfuro[2,3-b]pyridine-5-carbonitrile]",≤ 5 µM
4,"O=C1CCCN1CCOc1ccc(-c2oc3nccc(NC[C@@H]4CCCO4)c3c2-c2ccccc2)cc1 [Example 56, 1-(2-((4-(3-phenyl-4-(((2S)-tetrahydro-2-furanylmethyl)amino)furo[2,3-b]pyridin-2-yl)phenyl)oxy)ethyl)-2-pyrrolidinone]",≤ 5 µM
5,"O=C(c1ccc(-c2oc3nccc(NC[C@@H]4CCCO4)c3c2-c2ccccc2)cc1)N1CCOCC1 [Example 57, 2-(4-(4-morpholinylcarbonyl)phenyl)-3-phenyl-N-((2S)-tetrahydro-2-furanylmethyl)furo[2,3-b]pyridin-4-amine]",≤ 5 µM
6,"CN(C)CCOc1ccc(-c2oc3nccc(NCC4CC4)c3c2-c2ccccc2)cc1 [Example 58, N-(cyclopropylmethyl)-2-(4-((2-(dimethylamino)ethyl)oxy)phenyl)-3-phenylfuro[2,3-b]pyridin-4-amine]",≤ 5 µM
7,"CN(C)CCOc1ccc(-c2oc3nccc(NCCN4CCOCC4)c3c2-c2ccccc2)cc1 [Example 59, 2-(4-((2-(dimethylamino)ethyl)oxy)phenyl)-N-(2-(4-morpholinyl)ethyl)-3-phenylfuro[2,3-b]pyridin-4-amine]",≤ 5 µM
8,"CN(C)CCOc1ccc(-c2oc3nccc(NCCc4ccccc4)c3c2-c2ccccc2)cc1 [Example 60, 2-(4-((2-(dimethylamino)ethyl)oxy)phenyl)-3-phenyl-N-(2-phenylethyl)furo[2,3-b]pyridin-4-amine]",≤ 5 µM
9,"CN(C)CCOc1ccc(-c2oc3nccc(NCC4SCCS4)c3c2-c2ccccc2)cc1 [Example 61, 2-(4-((2-(dimethylamino)ethyl)oxy)phenyl)-N-(1,3-dithiolan-2-ylmethyl)-3-phenylfuro[2,3-b]pyridin-4-amine]",≤ 5 µM
10,"CC(=O)NCCNc1ccnc2oc(-c3ccc(OCCN4CCCCC4)cc3)c(-c3ccccc3)c12 [Example 62, N-(2-((3-phenyl-2-(4-((2-(1-piperidinyl)ethyl)oxy)phenyl)furo[2,3-b]pyridin-4-yl)amino)ethyl)acetamide]",≤ 5 µM
11,"Fc1cc(-c2oc3nccc(NCCN4CCNCC4)c3c2-c2ccccc2)ccc1OCCN1CCCCC1 [Example 63, 2-(3-fluoro-4-((2-(1-piperidinyl)ethyl)oxy)phenyl)-3-phenyl-N-(2-(1-piperazinyl)ethyl)furo[2,3-b]pyridin-4-amine]",≤ 5 µM
12,"c1ccc(-c2c(-c3ccc(CN4CCOCC4)cc3)oc3nccc(NCCN4CCNCC4)c23)cc1 [Example 64, 2-(4-(4-morpholinylmethyl)phenyl)-3-phenyl-N-(2-(1-piperazinyl)ethyl)furo[2,3-b]pyridin-4-amine]",≤ 5 µM
13,"CN1CCN(C(=O)c2cccc(-c3oc4ncccc4c3-c3ccccc3)c2)CC1 [Example 65, 2-(3-((4-methyl-1-piperazinyl)carbonyl)phenyl)-3-phenylfuro[2,3-b]pyridine]",≤ 5 µM
14,"CN1CCN(C(=O)c2cccc(-c3oc4nccc(NCCN5CCNCC5)c4c3-c3ccccc3)c2)CC1 [Example 66, 2-(3-((4-methyl-1-piperazinyl)carbonyl)phenyl)-3-phenyl-N-(2-(1-piperazinyl)ethyl)furo[2,3-b]pyridin-4-amine]",≤ 5 µM
15,"O=C(c1cccc(-c2oc3nccc(NCCN4CCNCC4)c3c2-c2ccccc2)c1)N1CCOCC1 [Example 67, 2-(3-(4-morpholinylcarbonyl)phenyl)-3-phenyl-N-(2-(1-piperazinyl)ethyl)furo[2,3-b]pyridin-4-amine]",≤ 5 µM
16,"c1ccc(COc2cccc(-c3oc4nccc(NCCN5CCNCC5)c4c3-c3ccccc3)c2)cc1 [Example 68, 3-phenyl-2-(3-((phenylmethyl)oxy)phenyl)-N-(2-(1-piperazinyl)ethyl)furo[2,3-b]pyridin-4-amine]",≤ 5 µM
17,"O=C(c1cccc(-c2oc3ncccc3c2-c2ccccc2)c1)N1CCOCC1 [Example 69, 2-(3-(4-morpholinylcarbonyl)phenyl)-3-phenylfuro[2,3-b]pyridine]",≤ 5 µM
18,"CC(C)N1CCN(c2ccc(-c3oc4nccc(NCCN5CCNCC5)c4c3-c3ccccc3)cc2)CC1 [Example 70, 2-(4-(4-(1-methylethyl)-1-piperazinyl)phenyl)-3-phenyl-N-(2-(1-piperazinyl)ethyl)furo[2,3-b]pyridin-4-amine]",≤ 5 µM
19,"CN1CCN(S(=O)(=O)c2ccc(-c3oc4nccc(NCCN5CCNCC5)c4c3-c3ccccc3)cc2)CC1 [Example 71, 2-(4-((4-methyl-1-piperazinyl)sulfonyl)phenyl)-3-phenyl-N-(2-(1-piperazinyl)ethyl)furo[2,3-b]pyridin-4-amine]",≤ 5 µM
20,"CCOC(=O)c1cnc2oc(-c3ccc(OCCN(C)C)cc3)c(-c3ccccc3)c2c1O [Example 72, ethyl 2-(4-((2-(dimethylamino)ethyl)oxy)phenyl)-4-hydroxy-3-phenylfuro[2,3-b]pyridine-5-carboxylate]",≤ 5 µM
21,"CC[Si](CC)(CC)c1oc2nccc(NC[C@@H]3CCCO3)c2c1-c1ccccc1 [Example 73, 3-phenyl-N-((2S)-tetrahydro-2-furanylmethyl)-2-(triethylsilyl)furo[2,3-b]pyridin-4-amine]",≤ 5 µM
22,"CC[Si](CC)(CC)c1oc2nccc(OCOC)c2c1-c1ccccc1 [Example 74, 4-(((methyloxy)methyl)oxy)-3-phenyl-2-(triethylsilyl)furo[2,3-b]pyridine]",≤ 5 µM
23,"CCOC(=O)c1cnc2oc([Si](CC)(CC)CC)c(-c3ccccc3)c2c1OCOC [Example 75, ethyl 4-(((methyloxy)methyl)oxy)-3-phenyl-2-(triethylsilyl)furo[2,3-b]pyridine-5-carboxylate]",≤ 5 µM
24,"CN(C)CCOc1ccc(-c2oc3nccc(NCCN4CCCCC4)c3c2-c2ccccc2)cc1 [Example 76, 2-(4-((2-(dimethylamino)ethyl)oxy)phenyl)-3-phenyl-N-(2-(1-piperidinyl)ethyl)furo[2,3-b]pyridin-4-amine]",≤ 5 µM
25,"CN(C)CCOc1ccc(-c2oc3nccc(NCCc4ccc(Cl)cc4)c3c2-c2ccccc2)cc1 [Example 78, N-(2-(4-chlorophenyl)ethyl)-2-(4-((2-(dimethylamino)ethyl)oxy)phenyl)-3-phenylfuro[2,3-b]pyridin-4-amine]",≤ 5 µM
26,"COc1ccc(CCNc2ccnc3oc(-c4ccc(OCCN(C)C)cc4)c(-c4ccccc4)c23)cc1 [Example 79, 2-(4-((2-(dimethylamino)ethyl)oxy)phenyl)-N-(2-(4-(methyloxy)phenyl)ethyl)-3-phenylfuro[2,3-b]pyridin-4-amine]",≤ 5 µM
